This is one part of the list.
Test: murine CD8 T cell vesicle adhesion modulation – mouse 2C CD8+ T cells, flow cytometry, primary screen (AID 2052);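 also: binding gate set so that unloaded-vesicle control wells show 10% double positive cells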
Conditions: 2C CD8+ T cell-vesicle binding, measured here: CD8+ vesicle-bound cell fraction, at 7 µM, stronger effect = lower value
Outline: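 System: murine 2C transgenic CD8+ T lymphocytes; also added: QL9-loaded Drosophila micro-vesicles; times: binding 1.5 h at 37 °C; measured by: flow cytometry, PE anti-B7-1 (FL2) versus Alexa647 anti-CD8 (FL8), PFA-fixed; control set: Peptide-free naked vesicles (low) and QL9 vesicles with 0.7% DMSO vehicle (high)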

Row | Compound | double positive events [%]
1 | O=P(Nc1ccccn1)(c1ccc(Br)cc1)c1ccc(Br)cc1 | 62.6
2 | Cc1ccccc1NP(C)(=O)Nc1ccccc1C | 57.2
3 | CP(=O)(Nc1ccc2c(c1)OCCO2)Oc1ccccc1 (stereo not given) | 30.3
4 | CCOP(C)(=S)SCC(=O)NC(C)(CC)C(=O)O (stereo not given) | 13.4
5 | c1nnnn1CCn1cnnn1 | 48.6
6 | CP(=O)(Nc1ccc(SC(F)(F)F)cc1)Oc1ccc(F)cc1 (stereo not given) | 28.4
7 | O=P(Nc1nccs1)(c1ccccc1)c1ccccc1 | 34
8 | CC(C)C(=O)NC(Sc1ccccc1)C(Cl)(Cl)Cl (stereo not given) | 40.3
9 | CC1(CBr)Cn2c(nc3ccccc3c2=O)S1 (stereo not given) | 8.3
10 | Cc1nc2ccc3ccccc3c2s1.O=[N+]([O-])c1cc([N+](=O)[O-])c(O)c([N+](=O)[O-])c1 | 34.1
11 | O=[As](O)(c1ccccc1Br)c1ccccc1Br | 63.3
12 | CN(C(=O)Cc1ccc(Cl)c(Cl)c1)[C@@H]1CCCC[C@H]1N1CCCC1 | 27.2
13 | CC(C)/C=N\N=C(\N)N[N+](=O)[O-] | 29
14 | COc1ccccc1CNC(=O)COC(=O)C(O)(c1ccccc1)c1ccccc1 | 26.6
15 | O=[N+]([O-])c1cc([N+](=O)[O-])c(-c2cnn(-c3ccccc3)c2)c([N+](=O)[O-])c1 | 20.1
16 | CC(C)(C)C(=O)NC(Sc1ncccn1)C(Cl)(Cl)Cl (stereo not given) | 9.6
17 | Clc1n[nH]nc1-c1nn[nH][15n]1 | 29.1
18 | CCOP(=O)(Nc1ccc(C)cn1)OCC | 39.2
19 | CN(CCCl)Cc1cc(Cl)c(NC2=NCCN2)c(Cl)c1 | 36.4
20 | O=[N+]([O-])c1cc([N+](=O)[O-])c(-n2nnc3ccccc32)c([N+](=O)[O-])c1 | 60.6
21 | CCOP(=O)(NC(=NC(C)c1ccccc1)NC(C)c1ccccc1)OCC (stereo not given) | 19.7
22 | CCC1=CC2Cc3nc4ccc(Cl)cc4c(N)c3C(C1)C2 (stereo not given) | 62.5
23 | O=P1(Nc2ccccn2)COc2ccccc2OC1 | 40.2
24 | Cc1ccc(OCC(=O)OC2CN3CCC2CC3)cc1 (stereo not given) | 36.1

Row | Compound | double positive events [%]
25 | NS(=O)(=O)c1cccc(NC(=O)COC(=O)C(O)(c2ccccc2)c2ccccc2)c1 | 9.3
26 | O=P1(Nc2ccc(Br)cn2)COc2ccccc2OC1 | 41.9
27 | CCCOc1ccc(NP(C)(=O)Oc2ccc(Cl)cc2)cc1 (stereo not given) | 45.6
28 | Nc1cccc([As](=O)(O)c2ccccc2)c1 | 33.1
29 | CP(=O)(Nc1ccc(SC(F)(F)F)cc1)Oc1ccccc1 (stereo not given) | 5.7
30 | COc1ccccc1OP(C)(=O)Nc1c(C)cccc1C (stereo not given) | 32.7
31 | O=P1(Nc2ncccn2)COc2ccccc2OC1 | 18.7
32 | O=C(/C=C/c1ccccc1)OC1CN2CCC1CC2 (stereo not given) | 48.9
33 | CCOC(=O)C(CC)C1=NC(C)(C)Cc2ccccc21.O=[N+]([O-])c1cc([N+](=O)[O-])c(O)c([N+](=O)[O-])c1 (stereo not given) | 35.5
34 | CC1=C2N=C(C=C3N=C(C(C)=C4[N-][C@@](C)([C@@H]5N=C1[C@](C)(CCC(=O)NC[C@@H](C)OP(=O)([O-])O[C@H]1[C@@H](O)[C@@H](n6cnc7cc(C)c(C)cc76)O[C@@H]1CO)[C@H]5CC(N)=O)[C@@](C)(CC(N)=O)[C@@H]4CCC(N)=O)[C@@](C)(CC(N)=O)[C@@H]3CCC(N)=O)C(C)(C)[C@@H]2CCC(N)=O.[C-]#N.[Co+3] | 33.4
35 | O=[N+]([O-])c1cc([N+](=O)[O-])c(Nc2nnnn2CCO)c([N+](=O)[O-])c1 | 51.4
36 | COc1cc(C2NCCC3(OCCO3)C2(C)C)cc(OC)c1OC.O=[N+]([O-])c1cc([N+](=O)[O-])c(O)c([N+](=O)[O-])c1 (stereo not given) | 41.7
37 | Cc1ccc(C(=O)OC2CN3CCC2CC3)cc1 (stereo not given) | 24.3
38 | CC1CCC(C(C)C)C(OP(=O)(Nc2ccccn2)c2ccccc2)C1 (stereo not given) | 55
39 | Cc1nn(-c2ccccc2)c2c1P(=O)(N1CCOCC1)N(C)C(c1ccccc1)=N2 (stereo not given) | 11.4
40 | CC1=NCCc2c1[nH]c1ccccc21.O=[N+]([O-])c1cc([N+](=O)[O-])c(O)c([N+](=O)[O-])c1 | 39.8
41 | CN(C(=O)Cc1ccc(Cl)c(Cl)c1)[C@H]1CC[C@@]2(CCCO2)C[C@@H]1N1CCCC1 | 24.2
42 | O=[N+]([O-])c1ccc2c(c1)nnn2O | 34.7
43 | CN(C)C(=O)c1cc([N+](=O)[O-])cc2c1-c1c(cc([N+](=O)[O-])cc1[N+](=O)[O-])C2=O | 25.6
44 | CCOP1(=S)c2c(C)nn(CCC#N)c2N=C(c2ccc(F)cc2)N1C (stereo not given) | 29.7
45 | CN(C(=O)Cc1ccccc1)[C@@H]1CC[C@]2(CCCO2)C[C@H]1N1CCCC1 | 23.5
46 | N#CCCN(C(=O)COC(=O)C(O)(c1ccccc1)c1ccccc1)c1ccc(F)cc1 | 29.2
47 | NC(=O)Nc1ccc([As](=O)(O)O)cc1 | 25.5
48 | O=C(O)COc1ccc([As](=O)(O)O)cc1[N+](=O)[O-] | 44.5

Row | Compound | double positive events [%]
49 | Nc1ccccc1[As](=O)(O)c1ccccc1 | 51.6
50 | CS(=O)(=O)c1cc([N+](=O)[O-])c2no[n+]([O-])c2c1 | 32.2
51 | O=P(Nc1nccs1)(Oc1ccccc1)Oc1ccccc1 | 39.1
52 | O=C(O)c1cccc(Nc2c([N+](=O)[O-])cc([N+](=O)[O-])cc2[N+](=O)[O-])c1 | 14.9
53 | CCOP1(=S)c2c(C)nn(CCC#N)c2N=C(c2ccccc2F)N1C (stereo not given) | 42.7
54 | CCOP(=O)(Nc1cccc2ccccc12)OCC | 49.1
55 | Cc1ccc(C)c(NP(C)(=O)Oc2ccccc2)c1 (stereo not given) | 30.1
56 | CCCOP(=S)(Nc1nc(N)cc(=O)[nH]1)OCCC | 57.6
57 | Cc1ccc(NCCc2c([N+](=O)[O-])cc([N+](=O)[O-])cc2[N+](=O)[O-])cc1 | 26.8
58 | Nc1cccc2c([As](=O)(O)O)cccc12 | 64.7
59 | Cc1cc(C)cc(OP(C)(=O)Nc2ccccn2)c1 (stereo not given) | 32.5
60 | CP(=O)(Nc1cccc(Br)c1)Oc1ccccc1 (stereo not given) | 23.1
61 | CCOC(=O)c1ccc(NP(C)(=O)Oc2cc(C)cc(C)c2)cc1 (stereo not given) | 20.7
62 | Cc1cc(C)cc(OP(C)(=O)Nc2ccc(C)cc2C)c1 (stereo not given) | 17.1
63 | Cc1cccc(OCC(=O)OC2CN3CCC2CC3)c1 (stereo not given) | 51.6
64 | O=[As](O)(c1cccc(O)c1)c1cccc(O)c1 | 34.6
65 | COc1ccccc1OP(C)(=O)Nc1cccc(Br)c1 (stereo not given) | 57.3
66 | CS(=O)(=O)c1ccc(Cl)c(NC(=O)COC(=O)C(O)(c2ccccc2)c2ccccc2)c1 | 14.1
67 | O=[As](O)(O)c1cccnc1 | 45.2
68 | COc1cc(C(=O)NCC2(N3CCOCC3)CCCCC2)cc(Cl)c1OC(C)C | 43.8
69 | O=C(OC1CN2CCC1CC2)c1ccc(Cl)cc1 (stereo not given) | 59.8
70 | COc1ccc(N/C(=N/P(=O)(N2CCOCC2)N2CCOCC2)N2CCOCC2)cc1 | 14.4
71 | COc1cc(I)ccc1[As](=O)(O)O | 51.8
72 | COc1ccc2nc(NP(=O)(c3ccccc3)c3ccccc3)sc2c1 | 59.5

Row | Compound | double positive events [%]
73 | Cc1cc(=O)[nH]c(N[N+](=O)[O-])n1 | 57.2
74 | CCN(CC)CCCOC(=O)C(O)(c1ccccc1)c1ccccc1 | 30.3
75 | O=C(OC1CN2CCC1CC2)C12CC3CC(CC(C3)C1)C2 (stereo not given) | 41.1
76 | Cc1c2c(nc3ccccc13)SC(C(Cl)Cl)C2 (stereo not given) | 48.8
77 | Cc1cc(C)cc(OP(C)(N)=O)c1 (stereo not given) | 39.9
78 | COc1ccc(OP(C)(=O)Nc2cccc(F)c2)cc1 (stereo not given) | 33.2
79 | O=[N+]([O-])c1cc([N+](=O)[O-])c(-c2ccn[nH]2)s1 | 56.1
80 | CC(C)NC(=O)NP(=O)(Oc1ccccc1)Oc1ccccc1 | 63.8
81 | COc1ccccc1OP(C)(=O)Nc1cc(Cl)ccc1C (stereo not given) | 66.3
82 | CCN(CC)C(=S)SC(NC=O)C(Cl)(Cl)Cl (stereo not given) | 44.3
83 | Cc1ccc(NP(C)(=O)Oc2ccccc2)c(C)c1 (stereo not given) | 26.9
84 | CC(C)c1ccc(OP(=O)(Nc2ccccn2)Oc2ccccc2F)cc1 (stereo not given) | 48.5
85 | COc1ccccc1OP(C)(=O)Nc1ccc(C)cc1 (stereo not given) | 21.4
86 | ClCCSc1nnc(-c2cccnc2)o1 | 45.8
87 | CCOC(=O)c1ccc(NP(C)(=O)Oc2ccccc2)cc1 (stereo not given) | 5.2
88 | O=[N+]([O-])c1ccc2c(c1)C=Nc1ccccc1O2 | 19.5
89 | Cc1ccc2nc3c(c(C)c2c1)CC(C(Cl)Cl)S3 (stereo not given) | 59.1
90 | Cc1cccc(C)c1OP(C)(N)=O (stereo not given) | 39.1
91 | Cc1ccc(OP(=O)(Nc2ccc([N+](=O)[O-])cn2)Oc2ccc(C)cc2)cc1 | 53.3
92 | CC(C)(C)c1ccc(OP(C)(=O)Nc2ccc(SC(F)(F)F)cc2)cc1 (stereo not given) | 49.5
93 | COc1cc(C(=O)NCC2(N3CCOCC3)CCCCC2)ccc1OCC(C)C | 20.3
94 | C[As](=O)(O)c1cccc(C(=O)O)c1 | 23.8
95 | O=[As](O)(c1ccc(O)cc1)c1ccccc1O | 39.7
96 | O=[N+]([O-])c1cc([N+](=O)[O-])c(Nc2cccnc2)c([N+](=O)[O-])c1 | 20.1

Row | Compound | double positive events [%]
97 | O=[N+]([O-])c1ccc(Nc2ccc(Oc3ccc([N+](=O)[O-])cc3[N+](=O)[O-])cc2)c([N+](=O)[O-])c1 | 17.3
98 | CP(=O)(Nc1ccccc1Br)Oc1ccccc1 (stereo not given) | 53.6
99 | COc1ccccc1OP(C)(=O)Nc1ccccc1 (stereo not given) | 34.9
100 | Cc1cc(SC(NC=O)C(Cl)(Cl)Cl)ncn1 (stereo not given) | 58.4
101 | O=P(Nc1ccccn1)(c1cccc2ccccc12)c1cccc2ccccc12 | 54.1
102 | CCOC(=O)Nc1cccc([As](=O)(O)O)c1 | 52
103 | CP(=S)(Nn1cnnc1)Oc1ccccc1 (stereo not given) | 48
104 | Cc1cc(SC(NC(=O)c2ccccc2)C(Cl)(Cl)Cl)nc(C(C)C)n1 (stereo not given) | 41.7
105 | CCOC(=O)Nc1ccc([As](=O)(O)O)c(O)c1 | 25.3
106 | CCC(C)N(CC(C)C)C(=S)SC(NC(C)=O)C(Cl)(Cl)Cl (stereo not given) | 5.5
107 | O=[N+]([O-])c1cc([N+](=O)[O-])c(O)c([N+](=O)[O-])c1.c1ccc(Oc2ccncc2)cc1 | 55.5
108 | CCOC(=O)c1ccc(NP(C)(=O)Oc2ccc(OC)cc2)cc1 (stereo not given) | 42.7
109 | CCOC(=O)c1ccc(NC(=O)C(C)(CCl)SC)cc1 (stereo not given) | 27.9
110 | O=C(OC1CN2CCC1CC2)c1cccc([N+](=O)[O-])c1 (stereo not given) | 18.2
111 | CCOP(C)(=S)SCC(=O)NC(C)C(=O)O (stereo not given) | 29.9
112 | O=C(Nc1ccncc1[N+](=O)[O-])c1ccc([N+](=O)[O-])cc1[N+](=O)[O-] | 14
113 | Cc1cc(C)cc(OP(C)(=O)Nc2ccc(SC(F)(F)F)cc2)c1 (stereo not given) | 54.8
114 | CP(=O)(NC(=O)Nc1ccccc1)Oc1ccccc1 (stereo not given) | 27.5
115 | O=C(COc1ccccc1)OC1CN2CCC1CC2 (stereo not given) | 26.1
116 | CCc1ccc(OP(C)(=O)N2CCN(c3ccc([N+](=O)[O-])cc3)CC2)cc1 (stereo not given) | 22
117 | CP(=O)(Oc1ccccc1)OC(c1ccccc1)C(F)(F)F (stereo not given) | 27.1
118 | COP1(=S)c2c(C)nn(CCC#N)c2N=C(c2ccc(F)cc2)N1C (stereo not given) | 8.2
119 | CP(=O)(Nc1ccc(SC(F)(F)F)cc1)Oc1ccc(Cl)cc1 (stereo not given) | 43.9
120 | Cc1cccc(C)c1OP(C)(=O)Nc1ccc(SC(F)(F)F)cc1 (stereo not given) | 33.5
